Laboratory results taken from paper PMC12624062.

T1: ASZ1 (endogenous, mouse testis) (mouse (endogenous in testis)), Q8VD46
T1 chain: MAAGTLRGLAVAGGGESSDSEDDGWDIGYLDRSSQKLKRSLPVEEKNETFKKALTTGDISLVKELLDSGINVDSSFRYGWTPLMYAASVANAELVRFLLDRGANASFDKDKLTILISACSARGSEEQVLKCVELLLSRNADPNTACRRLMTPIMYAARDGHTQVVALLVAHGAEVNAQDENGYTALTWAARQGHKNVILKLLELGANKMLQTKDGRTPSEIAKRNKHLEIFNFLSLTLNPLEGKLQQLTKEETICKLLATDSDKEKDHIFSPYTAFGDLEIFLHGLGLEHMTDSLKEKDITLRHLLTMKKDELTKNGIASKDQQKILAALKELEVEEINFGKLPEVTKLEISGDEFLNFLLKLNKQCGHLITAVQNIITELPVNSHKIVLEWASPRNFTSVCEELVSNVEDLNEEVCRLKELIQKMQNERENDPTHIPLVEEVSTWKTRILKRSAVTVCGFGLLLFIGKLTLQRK


Legend:
[1] = molecular target: PIWIL2 (endogenous, mouse testis) (mouse (endogenous in testis)), Q8CDG1; test: affinity purification with mass spectrometry; P20 wild-type mouse testis lysates; IP with PIWIL2, ASZ1 or TDRD1 antibodies against rabbit IgG control; Protein A/G agarose; LC-MS; n = 3; settings: remark: other sources report otherwise
[2] = molecular target: T1, ASZ1 (endogenous, mouse testis) (mouse …); test: as above; settings: remark: other sources report otherwise

Binder | binding [1] | binding [2]
GPAT2 (endogenous, mouse testis), Q14DK4 1-801 (protein) MDTMLKSNPQTQQRSNHNGQETSLWSSSFGMKMEAITPFLGKYRPFMGRCCQTCTPKSWESLFHRSIMDLGFCNVILVKEENTRFRGWLVRRLCYFLWSLEQHIPTSFDASQKIMENTGVQNLLSGRVPGAAGEGQAPELVKKEVQRILGHIQTTPRPFLLRLFSWALLWFLNRLFLNVQLHKGQMKMVQKAVQEGSPLVFLSTHKSLLDGFLLPFVLFSQGLGVVRVALDSRTCSPALRALLRKLGGLFLPPEVNLSLDNSEGILARAVVRATVEELLTSGQPLLIFLEEPPGSPGPRLSALGQAWLGVVIQAVQAGIISDATLVPVAIAYDLVPDAPCNMNHDLAPLGLWTGALAVFRRLCNCWGCNRRVCVRVHLAQPFSLQEYTINARSCWDSRQTLEHLLQPIVLGECSVVPDTEKEQEWTPPTGLLLALKEEDQLLVRRLSRHVLSASVASSAVMSTAIMATLLLLKHQKGVVLSQLLGEFSWLTEETLLRGFDVGFSGQLRCLAQHTLSLLRAHVVLLRVHQGDLVVVPRPGPGLTHLARLSMELLPTFLSEAVGACAVRGLLAGRVPPEGPWELQGIELLSQNELYRQILLLLHLLPQDLLLPQPCQSSYCYCQEVLDRLIQCGLLVAEETPGSRPACDTGRQHLSAKLLWKPSGDFTDSESDDFEEPGGRCFRLSQQSRCPDFFLFLCRLLSPILKAFAQAATFLHLGQLPDSEVAYSEKLFQFLQACAQEEGIFECADPNLAISAVWTFKDLGVLQEMPSPTGPQLHLSPTFATRDNQDKLEQFIRQFICS | binds | 
TDRKH (endogenous, mouse testis), Q80VL1 1-560 (protein) MSTERTSWTNLSTIQKIALGLGIPASATVAYILYRRYRESREERLTFVGEDDIEIEMRVPQEAVKLIIGRQGANIKQLRKQTGARIDVDTEDVGDERVLLISGFPVQVCKAKAAIHQILTENTPVFEQLSVPQRSVGRIIGRGGETIRSICKASGAKITCDKESEGTLLLSRLIKISGTQKEVAAAKHLILEKVSEDEELRKRIAHSAETRVPRKQPISVRREEVTEPGGAGEAALWKNTNSSMGPATPLEVPLRKGGGDMVVVGPKEGSWEKPNDDSFQNSGAQSSPETSMFEIPSPDFSFHADEYLEVYVSASEHPNHFWIQIIGSRSLQLDKLVSEMTQHYENSLPEDLTVHVGDIVAAPLSTNGSWYRARVLGTLENGNLDLYFVDFGDNGDCALKDLRALRSDFLSLPFQAIECSLARIAPTGEEWEEEALDEFDRLTHCADWKPLVAKISSYVQTGISTWPKIYLYDTSDEKKLDIGLELVRKGYAVELPEDMEENRTVPNMLKDMATETDDSLASILTETKKSPEEMPHTLSCLSLSEAASMSGDDNLEDDLF | binds | binds

No constants are given. Whether binding was seen depends on the method and setting. Binding seen in cells or lysates may run through a third protein. Here binding means that the protein was enriched with, or labelled near, the bait; the list need not be complete.
